According to patent publication US20230026611A1, “ARYL HETEROCYCLIC COMPOUNDS AS Kv1.3 POTASSIUM SHAKER CHANNEL BLOCKERS” (D. E. Shaw Research, LLC, priority 2019, published 2023):
Structures were worked out from names or drawings and are uncertain.

Amino acid sequences for entries named in this document (tags omitted).
UniProt P22001, whole entry: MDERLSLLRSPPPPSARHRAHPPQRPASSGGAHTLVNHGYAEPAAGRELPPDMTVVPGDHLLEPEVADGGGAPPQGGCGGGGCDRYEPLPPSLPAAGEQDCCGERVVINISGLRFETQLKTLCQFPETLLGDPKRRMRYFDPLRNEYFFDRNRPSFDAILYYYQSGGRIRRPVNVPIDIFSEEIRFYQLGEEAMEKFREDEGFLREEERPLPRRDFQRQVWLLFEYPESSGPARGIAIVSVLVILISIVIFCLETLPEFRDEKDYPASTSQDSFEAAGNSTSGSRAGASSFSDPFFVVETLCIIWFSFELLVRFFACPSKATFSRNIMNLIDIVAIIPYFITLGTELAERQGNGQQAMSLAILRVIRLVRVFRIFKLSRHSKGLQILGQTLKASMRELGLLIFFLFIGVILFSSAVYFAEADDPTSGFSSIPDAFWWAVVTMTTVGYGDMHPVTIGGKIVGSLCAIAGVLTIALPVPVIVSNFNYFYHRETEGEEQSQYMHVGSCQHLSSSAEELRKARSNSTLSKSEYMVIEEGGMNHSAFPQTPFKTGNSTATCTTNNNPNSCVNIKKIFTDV

Target: Kv1.3 potassium channel (Homo sapiens, UniProt P22001)
Assay: Kv1.3 potassium channel blocker activity, automated whole-cell patch clamp (Patchliner) in CHO-K1 cells stably expressing Kv1.3
Conditions: read-out: Kv1.3 IC50, current inhibition
Description: Example 82. Evaluation of Kv1.3 potassium channel blocker activities
This assay is used to evaluate the disclosed compounds' activities as Kv1.3 potassium channel blockers.
CHO-K1 cells stably expressing Kv1.3 were grown in DMEM containing 10% heat-inactivated FBS, 1 mM sodium pyruvate, 2 mM L-glutamine, and G418 (500 μg/ml). Cells were grown in culture flasks at 37° C. in a 5% CO2-humidified incubator.
The cells were bathed in an extracellular solution containing 140 mM NaCl, 4 mM KCl, 2 mM CaCl2), 1 mM MgCl2, 5 mM glucose, 10 mM HEPES; pH adjusted to 7.4 with NaOH; 295-305 mOsm. The internal solution contained 50 mM KCl, 10 mM NaCl, 60 mM KF, 20 mM EGTA, 10 mM HEPES; pH adjusted to 7.2 with KOH; 285 mOsm. All compounds were dissolved in DMSO at 30 mM. Compound stock solutions were freshly diluted with external solution to concentrations of 30 nM, 100 nM, 300 nM, 1 μM, 3 μM, 10 μM, 30 μM and 100 μM. The highest content of DMSO (0.3%) was present in 100 μM.
The currents were evoked by applying 100 ms depolarizing pulses from −90 mV (holding potential) to +40 mV were applied with 0.1 Hz frequency. Control (compound-free) and compound pulse trains for each compound concentration applied contained 20 pulses. 10-second breaks were used between pulse trains (see Table A below). […]

**Q.** `N#Cc1ccc(O)c(C2CCNCC2)c1Cl` was tested. Which IC50 did it give?
**A.** < 10 µM

**Q.** `Oc1cc(Cl)c(Cl)cc1C1CCNC1` (single isomer, unassigned) was tested. Which IC50 did it give?
**A.** < 10 µM
